Results are given in words; binding and its absence hold for the method and conditions named. In cells and extracts the contact can be indirect. Some entries that bind do so weakly or less than the wild type.

Amino acid sequences for entries named in this document (tags omitted). Residues count along the entry.
UniProt Q68FX9, residues 37-310: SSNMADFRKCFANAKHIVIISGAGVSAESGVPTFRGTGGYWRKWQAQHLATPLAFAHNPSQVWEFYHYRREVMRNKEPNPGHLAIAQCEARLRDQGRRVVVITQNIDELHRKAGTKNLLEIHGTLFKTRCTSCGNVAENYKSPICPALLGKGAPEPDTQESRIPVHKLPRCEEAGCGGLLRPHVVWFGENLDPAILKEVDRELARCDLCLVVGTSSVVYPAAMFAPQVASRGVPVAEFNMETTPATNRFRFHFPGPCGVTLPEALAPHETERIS
UniProt O35547: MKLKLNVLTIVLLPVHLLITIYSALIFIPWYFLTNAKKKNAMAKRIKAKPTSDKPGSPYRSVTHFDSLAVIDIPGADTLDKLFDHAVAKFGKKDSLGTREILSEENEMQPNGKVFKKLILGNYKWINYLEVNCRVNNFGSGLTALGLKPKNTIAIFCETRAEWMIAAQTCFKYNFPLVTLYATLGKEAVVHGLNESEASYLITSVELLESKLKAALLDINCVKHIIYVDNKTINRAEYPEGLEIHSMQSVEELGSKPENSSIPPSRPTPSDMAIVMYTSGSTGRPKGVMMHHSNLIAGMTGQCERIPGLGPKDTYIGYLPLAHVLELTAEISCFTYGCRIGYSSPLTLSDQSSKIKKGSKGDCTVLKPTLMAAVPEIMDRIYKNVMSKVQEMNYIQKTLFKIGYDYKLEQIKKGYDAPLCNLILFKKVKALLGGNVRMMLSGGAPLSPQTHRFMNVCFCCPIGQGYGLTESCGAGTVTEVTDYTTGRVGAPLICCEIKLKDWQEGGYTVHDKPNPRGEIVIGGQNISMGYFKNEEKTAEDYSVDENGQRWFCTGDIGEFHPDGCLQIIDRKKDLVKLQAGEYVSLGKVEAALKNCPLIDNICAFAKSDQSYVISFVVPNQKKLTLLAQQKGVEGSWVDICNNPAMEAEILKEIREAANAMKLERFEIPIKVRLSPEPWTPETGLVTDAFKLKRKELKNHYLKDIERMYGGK

This experiment has as its target SIRT5 (rat (endogenous in rat chondrocytes)) (UniProt Q68FX9). In words: co-IP; endogenous; cell lysates incubated with SIRT5-specific antibodies and protein A/G agarose beads; immunoprecipitated proteins analysed by Western blot with ACSL4-specific antibodies.

As to “ACSL4 (from UniProt O35547 1-711) (enzyme)”, the binding entry was “binds”.

For the origin of these results see PMC12360603.
